# In doi:10.1101/2021.08.11.456030:
# Results are given in words; binding and its absence hold for the method and conditions named. In cells and extracts the contact can be indirect. A yes stands for co-enrichment or nearness to the bait. Other partners may have been found.
# T1: Moloney leukaemia virus 10 homologue (MOV10) (mouse (endogenous in mESCs)) (UniProt P23249)
# T1 sequence: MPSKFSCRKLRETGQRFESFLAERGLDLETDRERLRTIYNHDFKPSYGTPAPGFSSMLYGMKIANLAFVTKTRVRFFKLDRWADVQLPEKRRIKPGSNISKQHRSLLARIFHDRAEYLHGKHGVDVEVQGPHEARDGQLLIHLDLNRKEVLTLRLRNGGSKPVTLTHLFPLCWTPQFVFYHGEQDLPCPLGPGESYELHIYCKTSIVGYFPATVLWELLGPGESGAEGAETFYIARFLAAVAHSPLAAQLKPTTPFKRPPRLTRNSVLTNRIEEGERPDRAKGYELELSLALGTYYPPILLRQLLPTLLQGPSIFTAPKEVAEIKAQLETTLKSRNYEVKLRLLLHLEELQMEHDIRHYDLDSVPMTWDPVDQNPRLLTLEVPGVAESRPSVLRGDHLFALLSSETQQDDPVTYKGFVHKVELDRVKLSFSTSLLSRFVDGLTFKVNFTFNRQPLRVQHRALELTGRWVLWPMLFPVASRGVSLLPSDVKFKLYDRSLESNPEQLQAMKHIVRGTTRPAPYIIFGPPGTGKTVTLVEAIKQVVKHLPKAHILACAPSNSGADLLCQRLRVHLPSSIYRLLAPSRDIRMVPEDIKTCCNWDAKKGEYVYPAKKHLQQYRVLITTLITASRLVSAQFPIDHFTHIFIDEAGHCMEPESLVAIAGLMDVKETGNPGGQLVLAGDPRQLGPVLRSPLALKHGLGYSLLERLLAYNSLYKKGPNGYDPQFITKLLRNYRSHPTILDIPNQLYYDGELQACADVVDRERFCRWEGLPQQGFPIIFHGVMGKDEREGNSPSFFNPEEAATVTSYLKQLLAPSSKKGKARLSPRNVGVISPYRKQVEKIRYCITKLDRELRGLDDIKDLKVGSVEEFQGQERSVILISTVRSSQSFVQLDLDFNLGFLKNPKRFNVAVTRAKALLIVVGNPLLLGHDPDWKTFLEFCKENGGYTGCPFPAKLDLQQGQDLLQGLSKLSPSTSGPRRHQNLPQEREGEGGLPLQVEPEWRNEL
# B1: ZCCHC3 (protein, UniProt Q8BPK2 1-400)
# chain: MATGGGAEEESQRGRPQLPLPARPVARVEEPEGVREKMGWAQVVKNLAEKKGDFREPRRRDETGSGASGGLGSPGGLATPNPGDFPPAARGDPKGRRRDPTGEASDAYRKKSASGAGDPSRRKKAEVTAAMATPARPGTTEDATERPLQDEPPAAGPGKGRFLVRICFQGDESACPTRDFVVGALILRSIGMDPDDIYAVIQIPGSREFDVSFRSAEKLALFLRVYEEKRELEDCWENFVVLGRSRSSLKTLFILFRNETVDVEDIVTWLKRHCDVLAVPVKVTDRFGIWTGEYKCEIELRQGEGGVRHLPGAFFLGAERGYSWYKGQPKTCFKCGSRTHMSGTCTQDRCFRCGEEGHLSPYCRKVIVCNLCGKRGHAFAQCPKAVHNSVTAQLTSVAGH
# B2: YTHDF2 (protein, UniProt Q91YT7 1-579)
# chain: MSASSLLEQRPKGQGNKVQNGSVHQKDGLNDDDFEPYLSPQARPNNAYTAMSDSYLPSYYSPSIGFSYSLGEAAWSTGGDTAMPYLTSYGQLSNGEPHFLPDAMFGQPGALGSTPFLGQHGFNFFPSGIDFSAWGNNSSQGQSTQSSGYSSNYAYAPSSLGGAMIDGQSAFANETLNKAPGMNTIDQGMAALKLGSTEVASSVPKVVGSAVGSGSITSNIVASSSLPPATIAPPKPASWADIASKPAKQQPKLKTKNGIAGSSLPPPPIKHNMDIGTWDNKGPVAKAPSQALVQNIGQPTQGSPQPVGQQANNSPPVAQASVGQQTQPLPPPPPQPAQLSVQQQAAQPTRWVAPRNRGSGFGHNGVDGNGVGQSQAGSGSTPSEPHPVLEKLRSINNYNPKDFDWNLKHGRVFIIKSYSEDDIHRSIKYNIWCSTEHGNKRLDAAYRSMNGKGPVYLLFSVNGSGHFCGVAEMKSAVDYNTCAGVWSQDKWKGRFDVRWIFVKDVPNSQLRHIRLENNENKPVTNSRDTQEVPLEKAKQVLKIIASYKHTTSIFDDFSHYEKRQEEEESVKKERQGRGK
# Target: T1, Moloney leukaemia virus 10 homologue (MOV10) (mouse (endogenous in mESCs))
# Assay: affinity purification with mass spectrometry
row,Binder,binding
1,B1,binds
2,B2,binds
